Values of other authors, collected in patent publication US12306194B2, “Reagent for fluorescence imaging of lipid droplets in cell and tissue” (NATIONAL UNIVERSITY CORPORATION GUNMA UNIVERSITY, priority 2019, dated 2025).
At least one compound was matched to its structure with a doubt left.

Conditions: cited from earlier work

Structure (SMILES): CC1=CC(C)=[N+]2C1=C(C)c1c(C)cc(C)n1[B-]2(F)F [BODIPY493/503]
- green fluorescence wavelength: about 500 nm
